Assay results reported in publication PMC2726289.
Results are given in words; binding and its absence hold for the method and conditions named. For some assays here: In cells and extracts the contact can be indirect. Some entries that bind do so weakly or less than the wild type. Where a sequence is shown, tags or fusion partners need not be part of it.

Tests used:
[1] = target: T1, GST-tagged GRAF1 SH3 domain (UniProt Q9UNA1); assay: pull-down; bead-bound GST-tagged GRAF1 SH3 domain with purified Dynamin; pellet and supernatant fractions on Coomassie-stained gels; both purified
T1 sequence: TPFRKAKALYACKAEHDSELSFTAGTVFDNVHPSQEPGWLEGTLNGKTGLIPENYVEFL

[2] = target: T1, GST-tagged GRAF1 SH3 domain; assay: pull-down; GST-tagged GRAF1 SH3 domain as bait against brain cytosol or HeLa cell lysate; only the target purified

B1: purified Dynamin1 (protein, UniProt P21575 1-864)
chain: MGNRGMEDLIPLVNRLQDAFSAIGQNADLDLPQIAVVGGQSAGKSSVLENFVGRDFLPRGSGIVTRRPLVLQLVNSTTEYAEFLHCKGKKFTDFEEVRLEIEAETDRVTGTNKGISPVPINLRVYSPHVLNLTLVDLPGMTKVPVGDQPPDIEFQIRDMLMQFVTKENCLILAVSPANSDLANSDALKIAKEVDPQGQRTIGVITKLDLMDEGTDARDVLENKLLPLRRGYIGVVNRSQKDIDGKKDITAALAAERKFFLSHPSYRHLADRMGTPYLQKVLNQQLTNHIRDTLPGLRNKLQSQLLSIEKEVDEYKNFRPDDPARKTKALLQMVQQFAVDFEKRIEGSGDQIDTYELSGGARINRIFHERFPFELVKMEFDEKELRREISYAIKNIHGIRTGLFTPDLAFEATVKKQVQKLKEPSIKCVDMVVSELTSTIRKCSEKLQQYPRLREEMERIVTTHIREREGRTKEQVMLLIDIELAYMNTNHEDFIGFANAQQRSNQMNKKKTSGNQDEILVIRKGWLTINNIGIMKGGSKEYWFVLTAENLSWYKDDEEKEKKYMLSVDNLKLRDVEKGFMSSKHIFALFNTEQRNVYKDYRQLELACETQEEVDSWKASFLRAGVYPERVGDKEKASETEENGSDSFMHSMDPQLERQVETIRNLVDSYMAIVNKTVRDLMPKTIMHLMINNTKEFIFSELLANLYSCGDQNTLMEESAEQAQRRDEMLRMYHALKEALSIIGDINTTTVSTPMPPPVDDSWLQVQSVPAGRRSPTSSPTPQRRAPAVPPARPGSRGPAPGPPPAGSALGGAPPVPSRPGASPDPFGPPPQVPSRPNRAPPGVPSRSGQASPSRPESPRPPFDL
In the case of B1, the binding [1] is reported as “binds”.

B2: Dynamin1 (rat brain cytosol) (protein, UniProt P21575 1-864)
chain: MGNRGMEDLIPLVNRLQDAFSAIGQNADLDLPQIAVVGGQSAGKSSVLENFVGRDFLPRGSGIVTRRPLVLQLVNSTTEYAEFLHCKGKKFTDFEEVRLEIEAETDRVTGTNKGISPVPINLRVYSPHVLNLTLVDLPGMTKVPVGDQPPDIEFQIRDMLMQFVTKENCLILAVSPANSDLANSDALKIAKEVDPQGQRTIGVITKLDLMDEGTDARDVLENKLLPLRRGYIGVVNRSQKDIDGKKDITAALAAERKFFLSHPSYRHLADRMGTPYLQKVLNQQLTNHIRDTLPGLRNKLQSQLLSIEKEVDEYKNFRPDDPARKTKALLQMVQQFAVDFEKRIEGSGDQIDTYELSGGARINRIFHERFPFELVKMEFDEKELRREISYAIKNIHGIRTGLFTPDLAFEATVKKQVQKLKEPSIKCVDMVVSELTSTIRKCSEKLQQYPRLREEMERIVTTHIREREGRTKEQVMLLIDIELAYMNTNHEDFIGFANAQQRSNQMNKKKTSGNQDEILVIRKGWLTINNIGIMKGGSKEYWFVLTAENLSWYKDDEEKEKKYMLSVDNLKLRDVEKGFMSSKHIFALFNTEQRNVYKDYRQLELACETQEEVDSWKASFLRAGVYPERVGDKEKASETEENGSDSFMHSMDPQLERQVETIRNLVDSYMAIVNKTVRDLMPKTIMHLMINNTKEFIFSELLANLYSCGDQNTLMEESAEQAQRRDEMLRMYHALKEALSIIGDINTTTVSTPMPPPVDDSWLQVQSVPAGRRSPTSSPTPQRRAPAVPPARPGSRGPAPGPPPAGSALGGAPPVPSRPGASPDPFGPPPQVPSRPNRAPPGVPSRSGQASPSRPESPRPPFDL
In the case of B2, the binding [2] is reported as “binds”.
